Among all 300,000 compounds or so, about 3,700 (1.2%) were called active. This list was built around the results that the source calls inconclusive (neither active nor inactive); the mix of calls is not that of the screen. Calls follow the shape of the full dose curve; tested in HEK293 cells. Potencies beside an inconclusive call are fits to weak or partial responses and may not hold up.
Experiment: qHTS for Inhibitors of binding or entry into cells for Lassa Virus; also: nearly all actives have a fitted effect of over 50% in size
Settings: Lassa virus pseudotype entry inhibition, cell reporter; series mostly up to 37.9 µM
Potency is read from the fitted curve at half-maximal effect.

| Structure (SMILES) | Potency |
| --- | --- |
| Cc1cccn2c(=O)nc(SCC(=O)NC3CCCCC3)nc12 | inactive |
| Cc1c(=O)n(OCc2ccccc2F)c2ccccc2[n+]1[O-] | inactive |
| c1csc(-c2nc3nc4ccccc4nc3n2Cc2ccc3c(c2)OCO3)c1 | inconclusive: 11.2 µM [inhibitor, partial curve, poor fit] |
| CC(C)(C)NC(=O)C1CC2CCCCC2CN1 (stereo unspecified) | inactive |
| O=C(COc1ccc([N+](=O)[O-])cc1)Nc1nc(-c2ccccn2)cs1 | inconclusive: 28.2 µM [inhibitor, partial curve, poor fit] |
| COc1ccc(NCc2cc3cc(OC)ccc3[nH]c2=O)cc1 | inconclusive: 7.3 µM [inhibitor, partial curve, poor fit] |
| Cc1ccc2ccc3cccnc3c2n1 | inconclusive: 2.24 µM [inhibitor, full curve, poor fit] |
| Cc1ccc(CNS(=O)(=O)c2c(C(=O)N3CCCCC3)c(C)n(C)c2C)cc1 | inactive |
| CCN(CC)c1ccc(C(=O)N2CCc3c([nH]c4ccccc34)C2c2ccc(F)cc2)cc1 (stereo unspecified) | inconclusive: 35.5 µM [inhibitor, single point] |
| CC(=O)c1cccc(NC(=O)c2nc(-c3ccccc3)oc2C)c1 | inconclusive: 12.6 µM [inhibitor, partial curve, poor fit] |
| CCN(CC)S(=O)(=O)c1cccc(-c2nnc(SCCCC(=O)c3ccccc3)o2)c1 | inconclusive: 23.1 µM [inhibitor, single point] |
| O=C(NC1CCN(Cc2ccccc2)CC1)C1CCN(S(=O)(=O)c2cccc3nsnc23)CC1 | inactive |
| CC(C)[C@H](NC(=O)OC(C)(C)C)C(=O)NCC1CCC(C(=O)N[C@@H](Cc2ccccc2)C(=O)O)CC1 (stereo partly specified) | inconclusive: 0.562 µM [inhibitor, partial curve, poor fit] |
| O=C(CSc1nnc(-c2ccccc2)n1-c1ccc(Cl)cc1)N/N=C/c1ccco1 | inconclusive: 12.6 µM [inhibitor, partial curve, poor fit] |
| CCOC(=O)c1c(CN2CCN(CC#N)CC2)n(C)c2cc(Br)c(OC)cc12 | inconclusive: 11.2 µM [inhibitor, partial curve, poor fit] |
| COCCNC(=S)Nc1ccc2nc(N3CCCC3)cc(C)c2c1 | inactive |
| CC(=NNC(=S)N1CC2CCC(CC2)C1)c1cccc(C)n1 | inconclusive: 7.08 µM [inhibitor, partial curve, poor fit] |
| COc1cc2ncn(-c3cc(OCc4ccccc4C(F)(F)F)c(C(C)=O)s3)c2cc1OC | inconclusive: 25 µM [inhibitor, partial curve] |
| CCOC(=O)c1ccc2c(c1)nc(SC/C(O)=C(\C#N)c1nc3ccccc3[nH]1)n2CC | inconclusive: 8.2 µM [activator, partial curve, poor fit] |
| O=[N+]([O-])c1ccc(/C=N/Nc2ncc(Br)cn2)cc1 | inactive |
| CC(C)C(C(=O)NC1CCCC1)N(CC1CCCO1)C(=O)CNS(=O)(=O)c1ccc(F)cc1 (stereo unspecified) | inactive |

| Structure (SMILES) | Potency |
| --- | --- |
| CCOC(=O)Cc1csc(NC(=O)/C=C/c2ccc(OC)cc2)n1 | inconclusive: 35.5 µM [inhibitor, single point] |
| COc1ccc(O)c(/C=N\NC(=O)CCn2nnc3ccccc32)c1 | inconclusive: 35.5 µM [inhibitor, single point] |
| COc1ccc(-c2cc(C(=O)N3CCN(C(c4ccccc4)c4ccccc4)CC3)no2)cc1 | inconclusive: 18.3 µM [inhibitor, partial curve, poor fit] |
| COc1ccc(C2=NN(CCC(=O)NCc3ccc4c(c3)OCO4)C(=O)CC2)cc1 | inconclusive: 20 µM [activator, single point] |
| CCOC(=O)c1cccc(NC(=O)CCn2c(=O)oc3ccccc32)c1 | inconclusive: 1.12 µM [inhibitor, partial curve, poor fit] |
| CSc1c(SCc2ccccc2)cnn(-c2ccccc2)c1=O | active: 5.17 µM |
| CC(C)c1ccc(NC(=O)CN(Cc2ccccc2)S(C)(=O)=O)cc1 | inconclusive: 20.6 µM [inhibitor, partial curve] |
| O=C(Nc1nc(-c2ccccn2)cs1)c1ncc(Cl)c(Cl)c1Cl | inconclusive: 35.5 µM [inhibitor, single point] |
| CC(=O)Nc1ccc(SCC(=O)c2cc(C)n(-c3ccccc3F)c2C)cc1 | inconclusive: 20 µM [inhibitor, single point] |
| COc1ccc2cc(Br)ccc2c1CC(=O)NC1CC(C)(C)NC(C)(C)C1 | inconclusive: 32.6 µM [inhibitor, single point] |
| COc1ccc(C)cc1NC(=O)C(=O)NCCc1sc(-c2cccc(C)c2)nc1C | inconclusive: 5.01 µM [inhibitor, full curve] |
| CCn1c(SCC(=O)Nc2sc(C)c(C)c2C#N)nnc1C(C)C | inactive |
| CCc1csc(CCNC(=O)C2CCC(=O)N(CCc3cccc(F)c3)C2)n1 (stereo unspecified) | inconclusive: 0.316 µM [activator, partial curve, poor fit] |
| CCn1c(SCC(N)=O)nc2ccccc2c1=O | inconclusive: 0.92 µM [inhibitor, partial curve, poor fit] |
| Cc1cc(C)n(-c2cc(N3CCN(C(=O)c4ccccc4C)CC3)ccc2[N+](=O)[O-])n1 | inconclusive: 14.6 µM [inhibitor, partial curve, poor fit] |
| CCOC(=O)c1cc2c(C)n(-c3ccc(C)cc3)c(C)c2ccc1=O | inconclusive: 29.1 µM [inhibitor, single point] |
| Cc1cc(C)nc(NS(=O)(=O)c2ccc(N3Cc4ccccc4C3=O)cc2)n1 | inactive |
| COc1ccc2[nH]c(C(=O)O)c(CCN3C(=O)c4ccc(C(=O)O)cc4C3=O)c2c1 | inconclusive: 17.8 µM [activator, partial curve, poor fit] |
| Cc1cc(NC2CCCCC2)nc(-c2ccccc2O)n1 | inconclusive: 35.5 µM [inhibitor, single point] |
| Cc1nn(C)c(C)c1S(=O)(=O)N(CC(=O)NCCc1ccc(Cl)cc1)c1ccc(C(C)C)cc1 | inconclusive: 3.98 µM [inhibitor, partial curve, poor fit] |

Source: PubChem BioAssay AID540256 (National Center for Advancing Translational Sciences (NCATS), 2011)
